One data set can be described thus: general procedure: solution-phase peptide synthesis; N-hydroxysuccinimide / 1-ethyl-3-(3-dimethylaminopropyl)carbodiimide hydrochlori. The settings on record: conjugation step, trifluoroacetate (Example 2 Process 2).
For the substance “N-(tert-butoxycarbonyl)glycylglycyl-L-phenylalanyl-N-(4-{[(1S,9S)-9-ethyl-5-fluoro-9-hydroxy-4-methyl-10,13-dioxo-2,3,9,10,13,15-hexahydro-1H,12H-benzo[de]pyrano[3′,4′:6,7]indolizino[1,2-b]quinolin-1-yl]amino}-4-oxobutyl)glycinamide”, the conjugation yield is listed as 73%.

As to “N-(tert-butoxycarbonyl)glycylglycyl-L-phenylalanyl-N-(6-{[(1S,9S)-9-ethyl-5-fluoro-9-hydroxy-4-methyl-10,13-dioxo-2,3,9,10,13,15-hexahydro-1H,12H-benzo[de]pyrano[3′,4′:6,7]indolizino[1,2-b]quinolin-1-yl]amino}-6-oxohexyl)glycinamide”, the conjugation yield came to 91%.

With “N-(tert-butoxycarbonyl)glycylglycyl-L-phenylalanyl-N-[2-(2-{[(1S,9S)-9-ethyl-5-fluoro-9-hydroxy-4-methyl-10,13-dioxo-2,3,9,10,13,15-hexahydro-1H,12H-benzo[de]pyrano[3′,4′:6,7]indolizino[1,2-b]quinolin-1-yl]amino}-2-oxoethoxy)ethyl]glycinamide”, the conjugation yield was determined as 95%.

In the case of “N-(tert-butoxycarbonyl)glycylglycyl-L-phenylalanylglycyl-N-[(1S,9S)-9-ethyl-5-fluoro-9-hydroxy-4-methyl-10,13-dioxo-2,3,9,10,13,15-hexahydro-1H, 12H-benzo[de]pyrano[3′,4′:6,7]indolizino[1,2-b]quinolin-1-yl]-β-alaninamide”, the conjugation yield worked out at 87%.

On to “N-[6-(2,5-dioxo-2,5-dihydro-1H-pyrrol-1-yl)hexanoyl]glycylglycyl-L-phenylalanyl-N-[(2-{[(1S,9S)-9-ethyl-5-fluoro-9-hydroxy-4-methyl-10,13-dioxo-2,3,9,10,13,15-hexahydro-1H,12H-benzo[de]pyrano[3′,4′:6,7]indolizino[1,2-b]quinolin-1-yl]amino}-2-oxoethoxy)methyl]glycinamide”, for which the conjugation yield is given as 82%.

In the case of “N-[19-(2,5-dioxo-2,5-dihydro-1H-pyrrol-1-yl)-17-oxo-4,7,10,13-tetraoxa-16-azanonadecan-1-oyl]glycylglycyl-L-phenylalanylglycyl-N-[(1S,9S)-9-ethyl-5-fluoro-9-hydroxy-4-methyl-10,13-dioxo-2,3,9,10,13,15-hexahydro-1H, 12H-benzo[de]pyrano[3′,4′:6,7]indolizino[1,2-b]quinolin-1-yl]-β-alaninamid”, the conjugation yield worked out at 29%.

“N-{3-[2-(2-{[3-(2,5-dioxo-2,5-dihydro-1H-pyrrol-1-yl)propanoyl]amino})ethoxy]propanoyl}glycylglycyl-L-phenylalanylglycyl-N-[(1S,9S)-9-ethyl-5-fluoro-9-hydroxy-4-methyl-10,13-dioxo-2,3,9,10,13,15-hexahydro-1H,12H-benzo[de]pyrano[3′,4′:6,7]indolizino[1,2-b]quinolin-1-yl]-O-alaninamide” showed a conjugation yield of 31%.

The same data set, now with this note: coupling step, trifluoroacetate (Example 2 Process 2).
“N-[6-(2,5-dioxo-2,5-dihydro-1H-pyrrol-1-yl)hexanoyl]glycylglycyl-L-phenylalanyl-N-[(2-{[(1S,9S)-9-ethyl-5-fluoro-9-hydroxy-4-methyl-10,13-dioxo-2,3,9,10,13,15-hexahydro-1H,12H-benzo[de]pyrano[3′,4′:6,7]indolizino[1,2-b]quinolin-1-yl]amino}-2-oxoethoxy)methyl]glycinamide” showed a step yield of 31%.

Consider “β-Alanylglycylglycyl-L-phenylalanyl-glycinamide (Process 2, h-0123)”, for which the step yield was 67%.

Staying with this data set, now noted: late stage modification step, trifluoroacetate.
Turning to “Glycylglycyl-L-phenylalanyl-N-(4-{[(1S,9S)-9-ethyl-5-fluoro-9-hydroxy-4-methyl-10,13-dioxo-2,3,9,10,13,15-hexahydro-1H,12H-benzo[de]pyrano[3′,4′:6,7]indolizino[1,2-b]quinolin-1-yl]amino}-4-oxobutyl)glycinamide trifluoroacetate”, the step yield turned out to be 99%.

“Glycylglycyl-L-phenylalanyl-N-[2-(2-{[(1S,9S)-9-ethyl-5-fluoro-9-hydroxy-4-methyl-10,13-dioxo-2,3,9,10,13,15-hexahydro-1H,12H-benzo[de]pyrano[3′,4′:6,7]indolizino[1,2-b]quinolin-1-yl]amino}-2-oxoethoxy)ethyl]glycinamide trifluoroacetate” came in with a step yield of 92%.

With “Glycylglycyl-L-phenylalanylglycyl-N-[(1S,9S)-9-ethyl-5-fluoro-9-hydroxy-4-methyl-10,13-dioxo-2,3,9,10,13,15-hexahydro-1H,12H-benzo[de]pyrano[3′,4′:6,7]indolizino[1,2-b]quinolin-1-yl]-β-alaninamide trifluoroacetate”, the step yield was 92%.

The same data set, now with this note: late stage modification step, trifluoroacetate (Example 2 Process 2).
Consider “Glycylglycyl-L-phenylalanyl-N-[(carboxymethoxy)methyl]glycinamide”, for which the step yield came out at 82%.

Regarding “N-(3-sulfanylpropanoyl)glycylglycyl-L-phenylalanyl-N-(4-{[(1S,9S)-9-ethyl-5-fluoro-9-hydroxy-4-methyl-10,13-dioxo-2,3,9,10,13,15-hexahydro-1H,12H-benzo[de]pyrano[3′,4′:6,7]indolizino[1,2-b]quinolin-1-yl]amino}-4-oxobutyl)glycinamide”, the step yield amounted to 66%.

Turning to “N-(bromoacetyl)-β-alanylglycylglycyl-L-phenylalanyl-glycinamide (Process 3, h-0124)”, the step yield amounted to 40%.

“N-[3-(2,5-dioxo-2,5-dihydro-1H-pyrrol-1-yl)propanoyl]glycylglycyl-L-phenylalanyl-N-(4-{[(1S,9S)-9-ethyl-5-fluoro-9-hydroxy-4-methyl-10,13-dioxo-2,3,9,10,13,15-hexahydro-1H,12H-benzo[de]pyrano[3′,4′:6,7]indolizino[1,2-b]quinolin-1-yl]amino}-4-oxobutyl)glycinamide” came in with a step yield of 73%.

Take “N-[6-(2,5-dioxo-2,5-dihydro-1H-pyrrol-1-yl)hexanoyl]glycylglycyl-L-phenylalanyl-N-(4-{[(1S,9S)-9-ethyl-5-fluoro-9-hydroxy-4-methyl-10,13-dioxo-2,3,9,10,13,15-hexahydro-1H,12H-benzo[de]pyrano[3′,4′:6,7]indolizino[1,2-b]quinolin-1-yl]amino}-4-oxobutyl)glycinamide”: the step yield stood at 76%.

“N-[6-(2,5-dioxo-2,5-dihydro-1H-pyrrol-1-yl)hexanoyl]glycylglycyl-L-phenylalanyl-N-[2-(2-{[(1S,9S)-9-ethyl-5-fluoro-9-hydroxy-4-methyl-10,13-dioxo-2,3,9,10,13,15-hexahydro-1H,12H-benzo[de]pyrano[3′,4′:6,7]indolizino[1,2-b]quinolin-1-yl]amino}-2-oxoethoxy)ethyl]glycinamide” showed a step yield of 62%.

Substance “N-[6-(2,5-dioxo-2,5-dihydro-1H-pyrrol-1-yl)hexanoyl]glycylglycyl-L-phenylalanyl-N-[(2-{[(1S,9S)-9-ethyl-5-fluoro-9-hydroxy-4-methyl-10,13-dioxo-2,3,9,10,13,15-hexahydro-1H,12H-benzo[de]pyrano[3′,4′:6,7]indolizino[1,2-b]quinolin-1-yl]amino}-2-oxoethoxy)methyl]glycinamide” returned a step yield of 38%.

“N-[6-(2,5-dioxo-2,5-dihydro-1H-pyrrol-1-yl)hexanoyl]glycylglycyl-L-phenylalanyl-N-[(carboxymethoxy)methyl]glycinamide” gave a step yield of 71%.

As to “N-{8-[(2,5-dioxopyrrolidin-1-yl)oxy]-8-oxooctanoyl}glycylglycyl-L-phenylalanyl-N-(4-{[(1S,9S)-9-ethyl-5-fluoro-9-hydroxy-4-methyl-10,13-dioxo-2,3,9,10,13,15-hexahydro-1H, 12H-benzo[de]pyrano[3′,4′:6,7]indolizino[1,2-b]quinolin-1-yl]amino}-4-oxobutyl)glycinamide”, the step yield was 71%.
